# Measurements reported in the supplement of paper PMC8728848.
# The list shows a part of the results.
# B1: EULS2 M3 (Oryza sativa) (protein)
# chain: MVYCRANPNYAMTARNGAVVLAPANPKDEYQHWIKDMRWSTSIKDEEGYPAFALVNKATGQAIKHSLGQSHPVRLVPYNPEVMDESVLWTESRDVGNGFRCIRMVNNIYLNFDAFHGDKYHGGVRDGTDIVLWKLCEGDSLRWKIQPYYILEQKLISEEDLNSAVDHHHHHH
# What was measured:
# Test in all cases: glycan array binding signal (z-score within array); higher = stronger binding
# Details in all cases: glycan notation: IUPAC condensed, linker removed
# [1] = target: Gal(b1-4)GlcNAc(b1-2)Man(a1-6)[Man(a1-3)]Man(b1-4)GlcNAc(b1-4)GlcNAc
# How it was run: (§1)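 Columns mapping to the same glycan were averaged after glycan names were converted to IUPAC-condensed notation. The data come from 3228 arrays in the Consortium for Functional Glycomics database, limited to those with an available protein sequence. Binding is reported as a within-array Z-score averaged across arrays of one protein sequence and across linkers.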
# [2] = target: Gal(b1-4)GlcNAc(b1-2)[Gal(b1-4)GlcNAc(b1-4)]Man(a1-3)[Gal(b1-4)GlcNAc(b1-2)Man(a1-6)]Man(b1-4)GlcNAc(b1-4)GlcNAc
# How it was run: as §1
# [3] = target: Gal(b1-4)GlcNAc(b1-2)[Gal(b1-4)GlcNAc(b1-4)]Man(a1-3)[Gal(b1-4)GlcNAc(b1-2)[Gal(b1-4)GlcNAc(b1-6)]Man(a1-6)]Man(b1-4)GlcNAc(b1-4)GlcNAc
# How it was run: as §1
# [4] = target: Gal(b1-4)GlcNAc(b1-2)[Gal(b1-4)GlcNAc(b1-4)]Man(a1-3)[GlcNAc(b1-4)][Gal(b1-4)GlcNAc(b1-2)Man(a1-6)]Man(b1-4)GlcNAc(b1-4)GlcNAc
# How it was run: as §1
# [5] = target: Gal(b1-4)GlcNAc(b1-2)[Gal(b1-4)GlcNAc(b1-4)]Man(a1-3)[GlcNAc(b1-4)][Gal(b1-4)GlcNAc(b1-2)[Gal(b1-4)GlcNAc(b1-6)]Man(a1-6)]Man(b1-4)GlcNAc(b1-4)GlcNAc
# How it was run: as §1
# [6] = target: Gal(b1-4)GlcNAc(b1-2)[Gal(b1-4)GlcNAc(b1-6)]Man(a1-6)[Gal(b1-4)GlcNAc(b1-2)Man(a1-3)]Man(b1-4)GlcNAc(b1-4)GlcNAc
# How it was run: as §1
# [7] = target: Gal(b1-4)GlcNAc(b1-2)[Gal(b1-4)GlcNAc(b1-6)]Man(a1-6)[Gal(b1-4)GlcNAc(b1-2)Man(a1-3)]Man(b1-4)GlcNAc(b1-4)[Fuc(a1-6)]GlcNAc
# How it was run: as §1
# [8] = target: Gal(b1-4)GlcNAc(b1-2)[Gal(b1-4)GlcNAc(b1-6)]Man(a1-6)[GlcNAc(b1-4)][Gal(b1-4)GlcNAc(b1-2)Man(a1-3)]Man(b1-4)GlcNAc(b1-4)GlcNAc
# How it was run: as §1
# [9] = target: Gal(b1-4)GlcNAc(b1-2)[Gal(b1-4)GlcNAc(b1-6)]Man(a1-6)[GlcNAc(b1-4)][Gal(b1-4)GlcNAc(b1-2)[Gal(b1-4)GlcNAc(b1-4)]Man(a1-3)]Man(b1-4)GlcNAc(b1-4)[Fuc(a1-6)]GlcNAc
# How it was run: as §1
# [10] = target: Gal(b1-4)GlcNAc(b1-3)Gal(b1-3)GalNAc
# How it was run: as §1
# [11] = target: Gal(b1-4)GlcNAc(b1-3)Gal(b1-3)GlcNAc
# How it was run: as §1
# [12] = target: Gal(b1-4)GlcNAc(b1-3)Gal(b1-4)Glc
# How it was run: as §1
# [13] = target: Gal(b1-4)GlcNAc(b1-3)Gal(b1-4)GlcNAc
# How it was run: as §1
# [14] = target: Gal(b1-4)GlcNAc(b1-3)Gal(b1-4)GlcNAc(b1-2)Man(a1-3)[Gal(b1-4)GlcNAc(b1-3)Gal(b1-4)GlcNAc(b1-2)Man(a1-6)]Man(b1-4)GlcNAc(b1-4)GlcNAc
# How it was run: as §1
# [15] = target: Gal(b1-4)GlcNAc(b1-3)Gal(b1-4)GlcNAc(b1-2)Man(a1-3)[Gal(b1-4)GlcNAc(b1-3)Gal(b1-4)GlcNAc(b1-2)Man(a1-6)]Man(b1-4)GlcNAc(b1-4)[Fuc(a1-6)]GlcNAc
# How it was run: as §1
# [16] = target: Gal(b1-4)GlcNAc(b1-3)Gal(b1-4)GlcNAc(b1-2)[Gal(b1-4)GlcNAc(b1-3)Gal(b1-4)GlcNAc(b1-6)]Man(a1-6)[Gal(b1-4)GlcNAc(b1-3)Gal(b1-4)GlcNAc(b1-2)Man(a1-3)]Man(b1-4)GlcNAc(b1-4)GlcNAc
# How it was run: as §1
# [17] = target: Gal(b1-4)GlcNAc(b1-3)Gal(b1-4)GlcNAc(b1-2)[Gal(b1-4)GlcNAc(b1-3)Gal(b1-4)GlcNAc(b1-6)]Man(a1-6)[Gal(b1-4)GlcNAc(b1-3)Gal(b1-4)GlcNAc(b1-2)Man(a1-3)]Man(b1-4)GlcNAc(b1-4)[Fuc(a1-6)]GlcNAc
# How it was run: as §1
# [18] = target: Gal(b1-4)GlcNAc(b1-3)Gal(b1-4)GlcNAc(b1-3)Gal(b1-4)GlcNAc
# How it was run: as §1
# [19] = target: Gal(b1-4)GlcNAc(b1-3)Gal(b1-4)GlcNAc(b1-3)Gal(b1-4)GlcNAc(b1-2)Man(a1-3)[Gal(b1-4)GlcNAc(b1-3)Gal(b1-4)GlcNAc(b1-3)Gal(b1-4)GlcNAc(b1-2)Man(a1-6)]Man(b1-4)GlcNAc(b1-4)GlcNAc
# How it was run: as §1
# [20] = target: Gal(b1-4)GlcNAc(b1-3)Gal(b1-4)GlcNAc(b1-3)Gal(b1-4)GlcNAc(b1-2)Man(a1-3)[Gal(b1-4)GlcNAc(b1-3)Gal(b1-4)GlcNAc(b1-3)Gal(b1-4)GlcNAc(b1-2)Man(a1-6)]Man(b1-4)GlcNAc(b1-4)[Fuc(a1-6)]GlcNAc
# How it was run: as §1
# [21] = target: Gal(b1-4)GlcNAc(b1-3)Gal(b1-4)GlcNAc(b1-3)Gal(b1-4)GlcNAc(b1-2)[Gal(b1-4)GlcNAc(b1-3)Gal(b1-4)GlcNAc(b1-3)Gal(b1-4)GlcNAc(b1-6)]Man(a1-6)[Gal(b1-4)GlcNAc(b1-3)Gal(b1-4)GlcNAc(b1-3)Gal(b1-4)GlcNAc(b1-2)Man(a1-3)]Man(b1-4)GlcNAc(b1-4)[Fuc(a1-6)]GlcNAc
# How it was run: as §1
# [22] = target: Gal(b1-4)GlcNAc(b1-3)Gal(b1-4)GlcNAc(b1-3)Gal(b1-4)GlcNAc(b1-3)Gal(b1-4)GlcNAc(b1-2)Man(a1-3)[Gal(b1-4)GlcNAc(b1-3)Gal(b1-4)GlcNAc(b1-3)Gal(b1-4)GlcNAc(b1-3)Gal(b1-4)GlcNAc(b1-2)Man(a1-6)]Man(b1-4)GlcNAc(b1-4)GlcNAc
# How it was run: as §1
binder,measurement,setting,value
B1,glycan array binding signal (z-score),[1],0.598
same,glycan array binding signal (z-score),[2],-0.298
same,glycan array binding signal (z-score),[3],-0.308
same,glycan array binding signal (z-score),[4],-0.237
same,glycan array binding signal (z-score),[5],-0.185
same,glycan array binding signal (z-score),[6],-0.379
same,glycan array binding signal (z-score),[7],-1.03
same,glycan array binding signal (z-score),[8],-0.564
same,glycan array binding signal (z-score),[9],-0.793
same,glycan array binding signal (z-score),[10],0.274
same,glycan array binding signal (z-score),[11],0.233
same,glycan array binding signal (z-score),[12],-0.287
same,glycan array binding signal (z-score),[13],-0.453
same,glycan array binding signal (z-score),[14],0.116
same,glycan array binding signal (z-score),[15],0.738
same,glycan array binding signal (z-score),[16],0.556
same,glycan array binding signal (z-score),[17],-0.127
same,glycan array binding signal (z-score),[18],0.251
same,glycan array binding signal (z-score),[19],0.959
same,glycan array binding signal (z-score),[20],0.242
same,glycan array binding signal (z-score),[21],-0.144
same,glycan array binding signal (z-score),[22],0.377

# 4 entries from above, tab-delimited.
binder	measurement	setting	value
B1	glycan array binding signal (z-score)	[7]	-1.03
same	glycan array binding signal (z-score)	[8]	-0.564
same	glycan array binding signal (z-score)	[9]	-0.793
same	glycan array binding signal (z-score)	[10]	0.274
